Results reported in paper PMC12637224, “The nonconserved integrin cytoplasmic region determines integrin subtype–specific characteristics by modulating talin1 binding kinetics” (The Journal of Biological Chemistry, 2025).

Target: GST-fused talin1 FERM F2–F3 domain
Assay: BLI; Octet RH96; GST-talin1 FERM F2–F3 (10 μg/ml) immobilized on Octet GST Biosensors; synthetic integrin CT peptides at 4.9, 14.8, 44.4 and 133 μM as analytes in 25 mM Tris–HCl, 150 mM NaCl, 0.05% Triton X-100, pH 7.5; binding to GST alone subtracted; both purified

B1: synthetic integrin β7 cytoplasmic tail peptide (peptide, UniProt P26010 747-798)
peptide: RLSVEIYDRREYSRFEKEQQQLNWKQDSNPLYKSAITTTINPRFQEADSPTL
  binding: binds

No constants are given. Whether binding was seen depends on the method and setting. Binding can be weak; no strength is given.
